Experimental data taken from the supplement of paper PMC12024529.
Where a name gives a salt, the structure may show the parent alone. The list shows a part of the results. Plates or batches differ in their baseline, so values are only roughly comparable.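 HEK293 lines stably express B-domain-deleted factor VIII fused to Gaussia luciferase, wild type or a misfolding-prone missense mutant. Scores equal triplicate-well mean luminescence minus DMSO mean, divided by DMSO standard deviation; scores of 2 or higher are hits. Low scores may indicate reduced secretion or worse cell viability.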

tested on: HEK293 WT BDD-FVIII-Gluc; assay: secreted FVIII-Gluc luciferase Z-score vs DMSO control; higher = more FVIII-Gluc secretion; conditions: 5 µM; 24 h

Secreted FVIII-Gluc luciferase Z-score, inactive:
Cc1cn([C@H]2C=C[C@@H](CO)O2)c(=O)[nH]c1=O [Stavudine] -0.716
N=C(N)N/N=C/c1c(Cl)cccc1Cl [Guanabenz acetate] -0.268
O=C(O)c1cc(/N=N/c2ccc(S(=O)(=O)Nc3ccccn3)cc2)ccc1O [Sulfasalazine (Azulfidine)] -1.7
Clc1ccc2nsnc2c1NC1=NCCN1 [Tizanidine HCl] -2.66
CN(CCOc1ccc(CC2SC(=O)NC2=O)cc1)c1ccccn1 (configuration not stated) [Rosiglitazone HCl] 1.01
CCOc1ccc2nc(S(N)(=O)=O)sc2c1 [Ethoxzolamide] -0.763
CN(C)CCN(Cc1ccccc1)c1ccccn1 [Tripelennamine HCl] -0.414
CCC(C)(C)C(=O)O[C@H]1C[C@@H](C)C=C2C=C[C@H](C)[C@H](CC[C@@H]3C[C@@H](O)CC(=O)O3)[C@H]21 [Simvastatin (Zocor)] -2.56
CC(C(=O)O)c1ccc2c(c1)CC(=O)c1ccccc1S2 (configuration not stated) [Zaltoprofen] 0.536
O=C(C[S+]([O-])Cc1ccco1)NC/C=C\COc1cc(CN2CCCCC2)ccn1 (configuration not stated) [Lafutidine] 0.877
Nc1ncn([C@H]2C[C@H](O)[C@@H](CO)O2)c(=O)n1 [Decitabine] 0.57
Cc1cnc(NC(=O)C2=C(O)c3ccccc3S(=O)(=O)N2C)s1 [Meloxicam (Mobic)] -3.9

Part of the list above in order of formula weight, low to high:
Secreted FVIII-Gluc luciferase Z-score, inactive:
Nc1ncn([C@H]2C[C@H](O)[C@@H](CO)O2)c(=O)n1 [Decitabine] 0.57
CN(CCOc1ccc(CC2SC(=O)NC2=O)cc1)c1ccccn1 (configuration not stated) [Rosiglitazone HCl] 1.01
CCC(C)(C)C(=O)O[C@H]1C[C@@H](C)C=C2C=C[C@H](C)[C@H](CC[C@@H]3C[C@@H](O)CC(=O)O3)[C@H]21 [Simvastatin (Zocor)] -2.56
